Results taken from the supplement of paper PMC10849652.
Some of the results follow.

Chains of the proteins cited; added tags and fusions are not shown. Lines headed by an entry give the natural chain unless they say otherwise; changes in a name come on top.
UniProt Q8N4P3, whole entry, looked up: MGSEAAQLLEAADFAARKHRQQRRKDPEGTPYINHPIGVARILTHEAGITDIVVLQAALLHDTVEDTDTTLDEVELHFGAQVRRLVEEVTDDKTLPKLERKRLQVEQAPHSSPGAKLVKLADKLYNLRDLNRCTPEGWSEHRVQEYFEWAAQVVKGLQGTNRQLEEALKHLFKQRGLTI
UniProt A2PYH4: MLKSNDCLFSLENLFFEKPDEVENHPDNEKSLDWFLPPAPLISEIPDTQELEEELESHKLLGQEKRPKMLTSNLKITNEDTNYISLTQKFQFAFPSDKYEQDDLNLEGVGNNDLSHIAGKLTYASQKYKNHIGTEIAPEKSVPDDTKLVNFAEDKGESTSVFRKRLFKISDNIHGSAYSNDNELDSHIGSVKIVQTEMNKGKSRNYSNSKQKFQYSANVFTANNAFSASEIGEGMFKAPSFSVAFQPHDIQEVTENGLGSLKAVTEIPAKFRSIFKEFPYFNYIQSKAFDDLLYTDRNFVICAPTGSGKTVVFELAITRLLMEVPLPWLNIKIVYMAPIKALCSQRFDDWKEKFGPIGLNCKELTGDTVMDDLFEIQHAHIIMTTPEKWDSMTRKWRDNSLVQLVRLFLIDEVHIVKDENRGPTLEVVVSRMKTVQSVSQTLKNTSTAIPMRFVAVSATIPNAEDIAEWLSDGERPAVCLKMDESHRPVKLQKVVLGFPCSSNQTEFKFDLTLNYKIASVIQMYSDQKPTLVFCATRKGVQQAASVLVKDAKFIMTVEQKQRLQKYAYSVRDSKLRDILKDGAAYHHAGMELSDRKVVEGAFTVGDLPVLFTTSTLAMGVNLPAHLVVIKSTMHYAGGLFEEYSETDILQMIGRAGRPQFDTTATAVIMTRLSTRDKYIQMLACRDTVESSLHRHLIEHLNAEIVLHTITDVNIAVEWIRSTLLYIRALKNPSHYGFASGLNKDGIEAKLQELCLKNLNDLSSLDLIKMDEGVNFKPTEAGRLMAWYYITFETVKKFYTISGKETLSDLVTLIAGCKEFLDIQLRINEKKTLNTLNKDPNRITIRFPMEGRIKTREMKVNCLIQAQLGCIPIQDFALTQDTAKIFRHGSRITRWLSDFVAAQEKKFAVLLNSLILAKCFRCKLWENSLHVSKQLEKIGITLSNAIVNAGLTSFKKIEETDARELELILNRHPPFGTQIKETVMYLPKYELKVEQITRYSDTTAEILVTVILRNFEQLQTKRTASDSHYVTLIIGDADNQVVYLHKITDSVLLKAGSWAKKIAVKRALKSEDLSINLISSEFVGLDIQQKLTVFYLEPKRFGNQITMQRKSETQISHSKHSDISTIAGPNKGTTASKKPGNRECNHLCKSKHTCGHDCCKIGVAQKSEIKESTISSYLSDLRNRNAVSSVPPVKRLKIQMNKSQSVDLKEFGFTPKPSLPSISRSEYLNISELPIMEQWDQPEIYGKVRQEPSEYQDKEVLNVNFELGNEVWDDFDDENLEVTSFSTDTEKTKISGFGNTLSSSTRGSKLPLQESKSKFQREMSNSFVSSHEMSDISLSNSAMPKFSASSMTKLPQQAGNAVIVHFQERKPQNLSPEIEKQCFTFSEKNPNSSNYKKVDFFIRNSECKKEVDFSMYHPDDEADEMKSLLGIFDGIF
UniProt P46976: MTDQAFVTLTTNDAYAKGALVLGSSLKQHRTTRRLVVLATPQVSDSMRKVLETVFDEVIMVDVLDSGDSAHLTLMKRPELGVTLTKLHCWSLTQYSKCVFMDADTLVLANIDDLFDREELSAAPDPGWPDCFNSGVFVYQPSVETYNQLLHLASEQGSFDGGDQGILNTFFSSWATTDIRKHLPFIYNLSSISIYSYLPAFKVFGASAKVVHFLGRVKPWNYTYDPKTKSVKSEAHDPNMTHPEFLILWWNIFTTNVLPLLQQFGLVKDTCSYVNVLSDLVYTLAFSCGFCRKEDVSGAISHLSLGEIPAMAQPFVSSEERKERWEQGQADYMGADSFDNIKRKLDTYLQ
UniProt P13807: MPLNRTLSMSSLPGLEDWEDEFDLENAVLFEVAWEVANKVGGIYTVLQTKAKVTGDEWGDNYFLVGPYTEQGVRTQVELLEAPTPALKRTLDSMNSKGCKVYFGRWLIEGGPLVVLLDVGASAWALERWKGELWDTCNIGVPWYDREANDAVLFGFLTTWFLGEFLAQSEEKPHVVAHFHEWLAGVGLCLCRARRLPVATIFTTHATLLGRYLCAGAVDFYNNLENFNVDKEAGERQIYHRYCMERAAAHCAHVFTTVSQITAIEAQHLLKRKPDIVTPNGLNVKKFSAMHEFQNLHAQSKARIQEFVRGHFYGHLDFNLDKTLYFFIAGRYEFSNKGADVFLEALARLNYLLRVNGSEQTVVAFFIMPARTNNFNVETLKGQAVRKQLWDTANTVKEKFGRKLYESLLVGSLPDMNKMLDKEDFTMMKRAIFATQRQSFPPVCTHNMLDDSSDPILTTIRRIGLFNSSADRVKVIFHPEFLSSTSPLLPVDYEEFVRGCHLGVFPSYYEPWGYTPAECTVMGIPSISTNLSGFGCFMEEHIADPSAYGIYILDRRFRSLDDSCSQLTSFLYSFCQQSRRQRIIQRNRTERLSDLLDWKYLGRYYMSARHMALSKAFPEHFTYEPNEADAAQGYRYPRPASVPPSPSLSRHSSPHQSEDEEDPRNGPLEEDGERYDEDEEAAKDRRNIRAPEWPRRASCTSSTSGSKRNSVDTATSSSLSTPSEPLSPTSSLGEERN
UniProt P40939: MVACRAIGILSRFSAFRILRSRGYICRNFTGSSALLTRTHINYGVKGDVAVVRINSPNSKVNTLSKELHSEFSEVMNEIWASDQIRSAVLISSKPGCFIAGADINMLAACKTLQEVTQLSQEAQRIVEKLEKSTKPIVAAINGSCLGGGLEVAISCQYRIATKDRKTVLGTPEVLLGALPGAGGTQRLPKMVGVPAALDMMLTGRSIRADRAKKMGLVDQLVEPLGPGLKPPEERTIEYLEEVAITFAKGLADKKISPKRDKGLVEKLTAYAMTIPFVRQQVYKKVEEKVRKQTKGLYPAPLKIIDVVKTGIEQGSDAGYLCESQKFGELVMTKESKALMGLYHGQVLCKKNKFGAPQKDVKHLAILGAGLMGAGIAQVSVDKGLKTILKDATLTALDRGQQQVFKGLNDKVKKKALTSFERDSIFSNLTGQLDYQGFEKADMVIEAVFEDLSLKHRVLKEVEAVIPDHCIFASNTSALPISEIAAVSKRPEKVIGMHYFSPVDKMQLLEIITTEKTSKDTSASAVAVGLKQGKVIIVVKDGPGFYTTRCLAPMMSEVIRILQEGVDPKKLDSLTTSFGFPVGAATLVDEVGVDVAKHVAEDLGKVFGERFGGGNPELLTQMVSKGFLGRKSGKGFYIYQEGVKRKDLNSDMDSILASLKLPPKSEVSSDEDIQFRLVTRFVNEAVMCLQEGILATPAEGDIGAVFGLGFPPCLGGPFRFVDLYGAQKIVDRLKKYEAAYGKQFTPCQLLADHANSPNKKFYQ
UniProt Q8WW33: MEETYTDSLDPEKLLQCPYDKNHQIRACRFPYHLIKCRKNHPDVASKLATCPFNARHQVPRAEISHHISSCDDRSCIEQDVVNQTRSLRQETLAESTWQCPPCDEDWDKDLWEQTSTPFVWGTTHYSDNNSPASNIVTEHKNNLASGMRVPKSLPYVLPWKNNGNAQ
UniProt Q7Z4H3: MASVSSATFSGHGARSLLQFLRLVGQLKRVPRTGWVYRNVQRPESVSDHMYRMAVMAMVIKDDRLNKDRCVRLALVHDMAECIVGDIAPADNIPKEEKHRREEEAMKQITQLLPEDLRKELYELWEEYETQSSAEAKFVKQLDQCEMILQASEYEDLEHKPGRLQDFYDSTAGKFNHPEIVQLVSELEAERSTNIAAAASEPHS
UniProt Q9Y2Q3: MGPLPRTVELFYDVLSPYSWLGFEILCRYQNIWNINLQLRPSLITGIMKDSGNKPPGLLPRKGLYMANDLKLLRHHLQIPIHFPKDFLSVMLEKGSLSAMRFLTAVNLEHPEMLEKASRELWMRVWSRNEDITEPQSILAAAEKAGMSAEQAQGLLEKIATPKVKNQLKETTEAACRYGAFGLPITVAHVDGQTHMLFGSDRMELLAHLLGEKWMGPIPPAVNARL
UniProt P49590: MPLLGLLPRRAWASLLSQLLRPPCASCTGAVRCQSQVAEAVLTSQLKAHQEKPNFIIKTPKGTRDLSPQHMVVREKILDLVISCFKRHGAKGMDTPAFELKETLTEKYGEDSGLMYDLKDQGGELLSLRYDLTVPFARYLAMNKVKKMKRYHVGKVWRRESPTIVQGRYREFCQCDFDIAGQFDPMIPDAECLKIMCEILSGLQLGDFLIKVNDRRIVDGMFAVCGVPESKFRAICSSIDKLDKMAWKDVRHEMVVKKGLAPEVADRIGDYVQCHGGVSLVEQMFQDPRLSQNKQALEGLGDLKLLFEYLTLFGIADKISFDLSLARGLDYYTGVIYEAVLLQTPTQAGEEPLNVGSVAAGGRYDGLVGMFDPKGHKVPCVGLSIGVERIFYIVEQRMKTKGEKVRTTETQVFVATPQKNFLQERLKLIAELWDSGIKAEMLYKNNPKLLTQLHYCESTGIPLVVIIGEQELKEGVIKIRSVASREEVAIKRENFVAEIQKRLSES
UniProt Q9Y5Z4: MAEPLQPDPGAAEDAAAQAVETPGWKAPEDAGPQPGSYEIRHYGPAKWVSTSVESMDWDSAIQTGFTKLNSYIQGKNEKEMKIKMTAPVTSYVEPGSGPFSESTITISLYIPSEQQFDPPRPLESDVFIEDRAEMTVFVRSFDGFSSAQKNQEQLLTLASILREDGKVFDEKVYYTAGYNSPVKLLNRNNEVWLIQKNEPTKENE
UniProt Q8TDG4: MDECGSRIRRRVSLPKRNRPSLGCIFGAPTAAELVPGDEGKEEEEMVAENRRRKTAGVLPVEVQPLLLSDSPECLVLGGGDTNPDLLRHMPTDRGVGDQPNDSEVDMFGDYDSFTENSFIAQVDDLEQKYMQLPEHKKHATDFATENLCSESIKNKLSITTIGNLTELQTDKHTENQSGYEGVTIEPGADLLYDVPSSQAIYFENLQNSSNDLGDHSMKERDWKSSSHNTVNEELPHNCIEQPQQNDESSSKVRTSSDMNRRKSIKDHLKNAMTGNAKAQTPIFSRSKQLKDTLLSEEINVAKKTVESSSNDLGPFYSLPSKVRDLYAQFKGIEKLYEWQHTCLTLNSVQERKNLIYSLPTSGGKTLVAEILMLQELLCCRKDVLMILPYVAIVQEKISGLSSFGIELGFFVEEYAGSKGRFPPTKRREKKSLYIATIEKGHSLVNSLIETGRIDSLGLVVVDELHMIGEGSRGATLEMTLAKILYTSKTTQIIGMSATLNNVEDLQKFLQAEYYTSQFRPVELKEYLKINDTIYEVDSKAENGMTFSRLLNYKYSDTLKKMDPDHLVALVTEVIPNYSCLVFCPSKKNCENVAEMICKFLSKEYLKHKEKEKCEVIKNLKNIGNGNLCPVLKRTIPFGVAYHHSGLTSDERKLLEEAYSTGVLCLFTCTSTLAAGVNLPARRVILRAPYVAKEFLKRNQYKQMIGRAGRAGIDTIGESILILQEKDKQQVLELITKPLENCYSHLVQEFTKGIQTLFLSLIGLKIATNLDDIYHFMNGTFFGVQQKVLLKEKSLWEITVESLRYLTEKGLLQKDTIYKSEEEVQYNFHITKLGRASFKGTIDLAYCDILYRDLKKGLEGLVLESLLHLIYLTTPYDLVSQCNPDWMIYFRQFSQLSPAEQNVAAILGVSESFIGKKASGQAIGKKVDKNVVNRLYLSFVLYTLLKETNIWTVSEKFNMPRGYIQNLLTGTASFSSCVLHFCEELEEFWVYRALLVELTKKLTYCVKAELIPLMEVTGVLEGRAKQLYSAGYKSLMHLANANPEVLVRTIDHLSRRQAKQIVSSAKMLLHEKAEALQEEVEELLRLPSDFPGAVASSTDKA
UniProt P12081: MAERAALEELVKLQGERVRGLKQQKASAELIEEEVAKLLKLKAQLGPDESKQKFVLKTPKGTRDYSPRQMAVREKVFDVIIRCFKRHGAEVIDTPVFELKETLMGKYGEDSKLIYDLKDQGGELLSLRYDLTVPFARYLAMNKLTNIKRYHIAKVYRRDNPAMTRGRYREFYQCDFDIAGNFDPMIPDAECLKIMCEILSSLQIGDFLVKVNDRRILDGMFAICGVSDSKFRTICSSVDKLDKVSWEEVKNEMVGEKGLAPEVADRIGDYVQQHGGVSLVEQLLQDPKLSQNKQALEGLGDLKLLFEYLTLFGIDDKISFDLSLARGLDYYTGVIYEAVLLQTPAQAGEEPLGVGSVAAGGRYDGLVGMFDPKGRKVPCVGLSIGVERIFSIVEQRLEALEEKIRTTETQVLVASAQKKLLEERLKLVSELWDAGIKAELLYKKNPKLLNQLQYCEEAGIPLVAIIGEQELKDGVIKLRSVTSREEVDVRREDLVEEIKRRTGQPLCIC
UniProt P02724: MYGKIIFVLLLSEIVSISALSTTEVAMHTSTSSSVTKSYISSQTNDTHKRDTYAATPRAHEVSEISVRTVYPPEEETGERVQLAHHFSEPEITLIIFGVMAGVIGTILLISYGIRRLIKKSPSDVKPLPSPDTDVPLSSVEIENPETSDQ

Legend:
Assay in all cases: log2 fold change, soluble protein after heating vs DMSO (PISA); higher = thermal stabilisation; K562 cells, 10 uM, 30 min; active = over 0.2 and 3.5 SD of the protein, either way, in both replicates (recomputed)
[1] = compound: C1=CC=C(C=C1)[C@H](COC2=CC3=C(C=C2)NC(=O)N3)NC(=O)C4=CC=CN(C4=O)CC5=CC(=C(C=C5)F)F
Outline: (§1)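 K562 cells (2×10^6 cells/mL) were treated with 10 μM compound for 30 min, and aliquots were heated for 3 min over 48°C-58°C. Pooled aliquots were extracted in PBS with 0.5% NP-40 at 4°C, and the supernatant after 21,000xg for 90 min was measured by TMTpro 16plex LC-MS/MS with channel sums equalised. Reported thermal stability, relative to control samples and from duplicates, is a log2 fold change.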

[2] = compound: CC1=C(SC2=C1C(=N[C@H](C3=NN=C(N32)C)CC(=O)N)C4=CC=C(C=C4)Cl)C
Outline: as §1

[3] = compound: CC1=C2C(=CC=C1)N=C(N(C2=O)C3=CC=CC=C3C)CN4C=NC5=C(N=CN=C54)N
Outline: as §1

[4] = compound: Cc1sc2c(c1C)C(c1ccc(Cl)cc1)=N[C@@H](CC(=O)OC(C)(C)C)c1nnc(C)n1-2
Outline: as §1

[5] = compound: c1ccc([C@@H]2C[C@H]2NC2CCNCC2)cc1
Outline: as §1

Measured: log2 fold change

HDGFL3 (UniProt Q9Y3E1)
inactive: [1] -0.003 | [2] 0.008 | [3] 0.026 | [4] -0.02 | [5] 0.111

HECTD3 (UniProt Q5T447)
inactive: [1] -0.015 | [2] 0.009 | [3] 0 | [4] 0.102 | [5] -0.044

HAX1 (UniProt O00165)
inactive: [1] -0.112 | [2] -0.008 | [3] 0.063 | [4] 0.008 | [5] -0.002

GTF2E1 (UniProt P29083)
inactive: [1] -0.086 | [2] 0.089 | [3] 0.136 | [4] -0.052 | [5] 0.034

GSR (UniProt P00390)
inactive: [1] 0.006 | [2] 0.044 | [3] 0.034 | [4] -0.023 | [5] -0.003

GTF2A2 (UniProt P52657)
inactive: [1] 0.003 | [2] 0.057 | [3] 0.092 | [4] -0.064 | [5] -0.017

HDDC3 (UniProt Q8N4P3)
inactive: [1] -0.005 | [2] 0.023 | [3] 0.126 | [4] 0.032 | [5] 0.024

GTPBP4 (UniProt Q9BZE4)
inactive: [1] -0.045 | [2] -0.207 | [3] -0.212 | [4] 0.179 | [5] 0.014

HBZ, A0A494C057
inactive: [1] -0.047

HFM1 (UniProt A2PYH4)
inactive: [1] 0.011

HEATR5B (UniProt Q9P2D3)
inactive: [1] -0.029 | [2] -0.015 | [3] 0.052 | [4] -0.071 | [5] 0.016

HBS1L (UniProt Q9Y450)
inactive: [1] -0.024 | [2] 0.02 | [3] 0.062 | [4] -0.001 | [5] -0.008

HDAC1 (UniProt Q13547)
inactive: [1] 0.004 | [2] 0 | [3] -0.004 | [4] 0.03 | [5] 0.154

HABP4 (UniProt Q5JVS0)
inactive: [1] -0.002

GTF3C6 (UniProt Q969F1)
inactive: [1] 0.016 | [2] -0.09 | [3] 0.065 | [4] 0.056 | [5] 0.116

GTPBP2 (UniProt Q9BX10)
inactive: [1] -0.023 | [2] 0.019 | [3] 0.094 | [4] 0.088 | [5] -0.041

HDGFL2 (UniProt Q7Z4V5)
inactive: [1] -0.043 | [2] 0.007 | [3] -0.03 | [4] -0.012 | [5] 0.065

GYG1 (UniProt P46976)
inactive: [1] 0.02 | [2] -0.077 | [3] -0.046 | [4] -0.008 | [5] -0.019

GSTT1 (UniProt P30711)
inactive: [1] 0.032 | [2] 0.121 | [3] 0.165 | [4] -0.146 | [5] 0.026

H2AFX (UniProt P16104)
inactive: [1] 0.103 | [2] -0.353 | [3] -0.374 | [4] -0.043 | [5] 0.206

Retrieved one by one from the entries so far (three):
H2AFX (UniProt P16104)
inactive: [1] 0.103 | [2] -0.353 | [3] -0.374 | [4] -0.043 | [5] 0.206

GTPBP2 (UniProt Q9BX10)
inactive: [1] -0.023 | [2] 0.019 | [3] 0.094 | [4] 0.088 | [5] -0.041

GTF3C6 (UniProt Q969F1)
inactive: [1] 0.016 | [2] -0.09 | [3] 0.065 | [4] 0.056 | [5] 0.116

Following part

HEXA (UniProt P06865)
inactive: [1] 0.042 | [2] -0.004 | [3] 0.052 | [4] -0.018 | [5] 0.024

HEATR5A (UniProt Q86XA9)
inactive: [1] -0.144 | [2] -0.032 | [3] 0.11 | [4] -0.055 | [5] -0.082

GYS1 (UniProt P13807)
inactive: [1] 0.007 | [2] -0.13 | [3] -0.02 | [4] 0.023 | [5] 0.054

HEXB (UniProt P07686)
inactive: [1] 0.028 | [2] 0.005 | [3] 0.064 | [4] -0.008 | [5] 0.016

GTF3A (UniProt Q92664)
inactive: [1] 0.002 | [2] -0.001 | [3] 0.08 | [4] -0.072 | [5] -0.071

HELLS (UniProt Q9NRZ9)
inactive: [1] 0.054

HADHB (UniProt P55084)
inactive: [1] -0.238 | [2] 0.235 | [3] 0.2 | [4] 0.363 | [5] -0.085

HDAC3 isoform 2 (UniProt O15379)
inactive: [1] -0.013 | [2] -0.209 | [3] 0.033 | [4] -0.016 | [5] -0.006

HADHA (UniProt P40939)
inactive: [1] -0.218 | [2] 0.254 | [3] 0.214 | [4] 0.256 | [5] -0.051

GTF3C4 (UniProt Q9UKN8)
inactive: [1] 0.027 | [2] 0.065 | [3] 0.143 | [4] 0.02 | [5] 0.025

HACL1 (UniProt Q9UJ83)
inactive: [1] 0.002 | [2] -0.01 | [3] 0.027 | [4] -0.012 | [5] -0.017

GTSF1 (UniProt Q8WW33)
inactive: [1] 0.026 | [2] 0.016 | [3] 0.012 | [4] -0.002 | [5] 0.008

HERC2 (UniProt O95714)
inactive: [1] -0.189 | [2] -0.017 | [3] -0.029 | [4] 0.327 | [5] -0.001

HBD (UniProt P02042)
inactive: [1] -0.073 | [2] 0.119 | [3] 0.08 | [4] -0.017 | [5] -0.077

HEBP1 (UniProt Q9NRV9)
inactive: [1] 0.27 | [2] 0.017 | [3] 0.063 | [4] -0.013 | [5] 0.006

HDDC2 (UniProt Q7Z4H3)
inactive: [1] 0.009 | [2] 0.057 | [3] -0.012 | [4] -0.071 | [5] -0.038

HBS1L isoform 2 (UniProt Q9Y450)
inactive: [1] -0.012 | [2] -0.019 | [3] 0.112 | [4] 0.129 | [5] -0.046

HDLBP (UniProt Q00341)
inactive: [1] 0.04 | [2] -0.132 | [3] -0.039 | [4] 0.182 | [5] 0.014

GXYLT1 (UniProt Q4G148)
inactive: [1] -0.106 | [2] 0.033 | [3] 0.017 | [4] 0.032 | [5] 0.025

GSTK1 (UniProt Q9Y2Q3)
inactive: [1] -0.042 | [2] 0.148 | [3] 0.147 | [4] -0.121 | [5] -0.019

H1FX (UniProt Q92522)
inactive: [1] 0.088 | [2] -0.146 | [3] -0.21 | [4] 0.135 | [5] -0.005

Taken from the results shown (2 entries):
HBZ, A0A494C057
inactive: [1] -0.047

HFM1 (UniProt A2PYH4)
inactive: [1] 0.011

Next records

HAUS4 (UniProt Q9H6D7)
inactive: [1] 0.094 | [2] -0.066 | [3] 0.077 | [4] -0.021 | [5] -0.002

HCCS (UniProt P53701)
inactive: [1] 0.022 | [2] -0.001 | [3] 0.049 | [4] 0.056 | [5] 0.037

HARS2 (UniProt P49590)
inactive: [1] 0.042 | [2] -0.023 | [3] 0.008 | [4] -0.011 | [5] 0.048

HEBP2 (UniProt Q9Y5Z4)
inactive: [1] -0.029 | [2] 0.024 | [3] -0.036 | [4] 0.001 | [5] 0.009

GSKIP (UniProt Q9P0R6)
inactive: [1] 0.054 | [2] 0.053 | [3] 0.031 | [4] -0.185 | [5] -0.103

H2AZ1 (UniProt P0C0S5)
inactive: [1] 0.12 | [2] -0.153 | [3] -0.247 | [4] -0.021 | [5] 0.123

GSTM3 (UniProt P21266)
inactive: [1] 0.036 | [2] 0.004 | [3] 0.037 | [4] -0.043 | [5] 0.001

HDAC6 (UniProt Q9UBN7)
inactive: [1] 0.159 | [2] 0.008 | [3] -0.001 | [4] -0.002 | [5] 0.009

HELQ (UniProt Q8TDG4)
inactive: [1] 0.101 | [2] -0.045 | [3] 0.19 | [4] -0.03 | [5] 0.136

GSK3B isoform 2 (UniProt P49841)
inactive: [1] 0 | [2] 0.083 | [3] 0.026 | [4] -0.016 | [5] -0.008

HARS (UniProt P12081)
inactive: [1] 0.005 | [2] 0 | [3] -0.015 | [4] 0.009 | [5] 0.022

GYPA (UniProt P02724)
inactive: [1] 0.005 | [2] -0.029 | [3] -0.099 | [4] 0.017 | [5] -0.011

HDHD2 (UniProt Q9H0R4)
inactive: [1] -0.044 | [2] 0.006 | [3] -0.003 | [4] 0.03 | [5] -0.031

HDAC2 (UniProt Q92769)
inactive: [1] 0.022 | [2] 0.042 | [3] 0.08 | [4] -0.002 | [5] 0.111

H4C1 (UniProt P62805)
inactive: [1] 0.078 | [2] -0.248 | [3] -0.298 | [4] -0.273 | [5] 0.21
